Percent effect of library compounds

Source: ChEMBL document CHEMBL3988442, “University of Dundee, Small-Polar-MMV Screening Library” (2021).

A: 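Growth of Mycobacterium tuberculosis over 4 days (cholesterol / DPPC medium with tyloxapol); the read-out is not stated. Concentration: 50 µM. The record gives no direction; compounds that gave an IC50 in retests scored well above the rest, so higher reads as more growth inhibition. Of about 69,000 compounds tested this way, about 370 (0.54%) reached 50% or more in at least one test.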
B: 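Whole-cell growth test on Mycobacterium tuberculosis, read after 3 days in glucose-containing 7H9 medium; the read-out is not stated. Compounds at 50 µM. Direction is inferred from retests: higher values go with more growth inhibition. Of about 69,000 compounds tested this way, about 760 (1.1%) reached 50% or more in at least one test.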

Results are given as percent effect.
How 0% and 100% were set is not recorded. Most values in the screen are low, and negative values occur.
The compounds are a random part of those screened.
Two or more numbers in one place are separate tests of the same structure; such repeats can differ widely.

compound | A | B
CC1CN(c2ccc(CNC(=O)NCCn3ccnc3)cn2)CCO1 (configuration not stated) | -23.63% | -5.081% & -4.519%
Cc1nn(C)c(N2CCOCC2)c1CNC1CCN(C(C)(C)C)CC1 | -7.619% | -7.157%
N#CC1(NC(=O)c2cc(Cl)ccc2OC(F)F)CCOCC1 | 4.677% | 21.05%
CCc1c(O)nc2nc(N3CCCC3)nn2c1C | -2.688% | -6.697%
COc1cc(N2CC3(CCN(S(C)(=O)=O)C3)C2)ncn1.O=C(O)C(F)(F)F | -10.95% & 8.313% | 6.611% & -5.985%
Cl.O=C(CCN1CCCCC1)Nc1c2c(cc3c1CCC3)CCC2 | -3.121% | 3.793% & 8.774%
O=C(Nc1cccnc1-n1cc(Cl)cn1)C1CCCC1 | 9.445% | 7.846%
[H][C@@]12CN(C(=O)C3CC=CC3)C[C@]1([H])C(=O)N(CC)C2 | -10.97% | -1.801% & -75.02%
Cc1nc2c(c(NCC(=O)NC(C)C)n1)Cc1ccccc1OC2 | -4.104% | 26.5%
Cc1nn(C)c(C)c1C1CCCN1CCOc1cccc(C#N)c1 (configuration not stated) | -23.91% | -24.61%
CCOc1ccnc(N2CCN(CCOC)CC2)n1 | 12.26% | 1.346%
Cc1cnc(C)c(-c2cc(O)c3c(c2)CN(c2nccs2)CCO3)n1 | 14% | 2.248% & 13.84%
O=C(O)C(F)(F)F.[H][C@@]12C[C@H](C(=O)NC)CN(Cc3cccc4ccccc34)[C@]1([H])CCO2 | 11.74% | 27.06%
Cc1ccc(-n2nnnc2SCN2CCCCC2=O)cc1C | 18.6% | 15.15%
CCN(CC)CCNC(=O)CCc1c(C)nn(-c2ccccc2Cl)c1C | -12.08% | -5.99%
CN(CCC(N)=O)Cc1cc(Br)cs1 | 8.04% | 4.238%
COC(=O)C(NC(=O)C(C)C)c1cc(F)ccc1F (configuration not stated) | -10.69% | -9.299%
CN(CCc1ccccc1)C(=O)c1cccnc1OCC(F)(F)F | -28.18% | -30.25%
CC(=O)NCC(=O)N1Cc2nccn2CC(COc2cccnc2)C1.O=C(O)C(F)(F)F (configuration not stated) | -18.3% | -2.378%
CCCc1n[nH]c(C2CN(C(=O)c3ccc4c(c3)COC4)CCO2)n1 (configuration not stated) | 10.09% | -10.7%
Cc1cc(N2CCC(Cc3ncccn3)C2)ncn1 (configuration not stated) | 7.64% | 27.69%
CCS(=O)(=O)N1CCn2cc(CN(C)Cc3ccco3)nc2C1 | -2.522% & -6.978% | -10.44%
Cn1c(CN2CCCC2)nnc1C1CCCN(C(=O)CN2CCCC2)C1 (configuration not stated) | -1.494% | 5.795%
Cc1cc(C(F)(F)F)n2nc(C3CCCN3C3CCSCC3)cc2n1.O=C(O)CC(O)(CC(=O)O)C(=O)O (configuration not stated) | 10.97% & 14.74% | 9.798%
Cc1cc(C(=O)NCC2(C(N)=O)CCOCC2)nn1C(C)(C)C | -9.013% | 25.32%
Cc1ccsc1C(O)CNC(=O)Cc1ccc(F)cc1 (configuration not stated) | -32.58% | -5.229%
O=C(O)C(F)(F)F.O=C1COC2(CCN(Cc3cccs3)CC2)CN1c1ccsc1 | 5.154% | 6.024%
N#Cc1cc(F)c(NCCc2cccnc2)c(F)c1 | -5.686% | -31.7%
Cn1nc(-c2ccc(F)cc2)cc1C(=O)NCCn1ccnc1 | -0.09665% | 2.737%
COCCCNC(=O)c1ccccc1-n1cc(CN(C)C)cn1 | -5.379% | 4.902%
O=C(NCC(O)c1ccc(Cl)c(F)c1)NC1CC=CC1 (configuration not stated) | 22.64% | 17.54%
Cc1ccccc1OCC(=O)N1CCOC2(CNCCOC2)C1 (configuration not stated) | 5.202% & -1.959% | 14.61%
CC(=O)N1CCC(C(=O)N2CCC(=Cc3cccc(F)c3)CC2)CC1 | -7.707% | 12.7% & -2.393%
Cc1cc(C)n(C2CCN(Cc3nc4ccccc4n3C)CC2)n1 | 7.3% | 29.21%
COCCO[C@H]1CCN(C(=O)C2CCOCC2)[C@H]1Cc1ccncc1 | -47.12% | -61.18%
CN(C)c1ccc(C(=O)NCCCNc2ccc(C(F)(F)F)cn2)cc1 | 24.5% | 26.77%
Cc1ccc(CCNC(=O)CC2COCCN2S(=O)(=O)N(C)C)s1 (configuration not stated) | 4.987% | 19.35%
CC(Cn1ccnc1)NC(=O)N1CCN(Cc2ccco2)CC1 (configuration not stated) | 7.108% | 16.24%
COc1ccc(C)cc1S(=O)(=O)N[C@H]1CN(C(C)=O)C[C@@H]1C1CC1 | 17.11% | -3.798%
c1cnc(NCCCOC2CCOCC2)nc1 | -9.359% | -18.35%
CC(C)c1nc(CN2CCOC(CNc3cccnn3)C2)cs1 (configuration not stated) | 14.85% | -1.75%
COC(=O)CCNC(=O)c1nnn(-c2ccc(C)cc2)c1C1CC1 | 14.4% | 30.87%
CNC(=O)c1ccc2c(c1)C1(CCN(C(C)C)CC1)C(=O)N2.O=C(O)C(F)(F)F | -16.09% | -20.06%
CCn1cc(CNC2CCN(c3cccc(Cl)c3)C2)cn1 (configuration not stated) | 5.008% | 6.363%
Nc1nc(NCCc2[nH]nc3c2CCCC3)cc(N2CCOCC2)n1 | 12.04% | -2.323%
CCN(CC)C(CNCc1cc(F)cc(F)c1)c1ccco1 (configuration not stated) | -17.2% | -48.8%
Cc1ccc(-c2nc(CNCCn3cccn3)cs2)o1 | 10.24% | -8.004%
CCc1nc(CN2CCOC(CN(C)c3cccnn3)C2)cs1 (configuration not stated) | -4.549% | -18.03%
COc1ccccc1OCC(=O)Nc1ncccc1Cl | -6.034% | 10% & -6.505%
Cc1cc(-n2cnnn2)n2ncnc2n1 | -13.36% | 6.96%
Cc1cnc(C(=O)N2CCC3(CC2)CN(c2ccccn2)CCO3)cn1 | -22.14% | 9.222%
O=C(CN1CCCS1(=O)=O)Nc1ccc(OC2CCCC2)cc1 | -6.869% | 27.79%
CS(=O)(=O)c1ccccc1C(=O)NCCCN1CCc2ccccc2C1 | -16.77% | -0.6705%
Cc1nc2c(cc1C(=O)O)CCN(Cc1ccsc1)CC2.O=C(O)C(F)(F)F.O=C(O)C(F)(F)F | -14.33% | -18.9%
CCN(CC1CCCO1)C(=O)Nc1cc(C(N)=O)ccc1OC (configuration not stated) | 0.6942% | -0.2041% & 19.72%
Cc1cnn(CC2CCCN2C(=O)c2cccnc2-n2cncn2)c1 (configuration not stated) | 1.042% | 15.99%
CN(C)[C@@H]1CCN(C(=O)c2cccc(C#N)c2)[C@H]1Cc1cnn(C)c1.O=C(O)C(F)(F)F | 1.609% & -2.577% | -26.17%
COC(=O)c1cccc(CN(C)C(C)c2ccccn2)c1 (configuration not stated) | -15.38% | -13.27%
O=C(Nc1cccnc1)C1=NN(c2ccccc2)C(=O)CN1 | -25.91% | -38.48%
CCc1nnc(Nc2cc(C)nc(C3CCN(c4ccncn4)C3)n2)s1 (configuration not stated) | -28.18% | -26.97%
CCn1ncc2c1CCCC2NCc1cccc2c1OCCCO2 (configuration not stated) | -4.061% | -1.62%
Cc1nc(O)cc(C2CCCN2CCO)n1 (configuration not stated) | -19.45% | -20.92%
Cc1cnn(C2CCCN(C(=O)c3ccn(C)c(=O)c3)C2)c1 (configuration not stated) | -0.5275% | -10.87%
Cc1nn(CCNC(C)Cn2ccnc2)c(C)c1Cl (configuration not stated) | 1.652% | -23.83%
Cc1nc(CCC(N)=O)cc(C2CCCN2S(C)(=O)=O)n1 (configuration not stated) | 1.079% & -7.137% | 2.302%
CC(C)NC(=O)c1nc(Cn2c(C(F)F)nc3ccccc32)no1 | 1.847% | -7.13%
COCCN1C(=O)C2(CCC(C(=O)Nc3ccc(C)cc3)CC2)N=C1C (configuration not stated) | -18.37% | -5.542% & 1.595%
[H][C@]12CC[C@]([H])(CN(S(=O)(=O)N(C)C)C1)N(C(=O)c1cnc(C)nc1C)C2 | -0.1542% | 6.711%
Cc1occc1C(=O)N1CCCC2(CCN(CCN3CCCC3)C2=O)C1.O=C(O)C(F)(F)F (configuration not stated) | -25.8% | -12.42%
CC(C)N1CCCC(C(=O)N2CCN(c3nsc4ccccc34)CC2)C1 (configuration not stated) | 4.229% | -1.492% & 0.5462%
Cc1cc(C)n(CC(C)NC2CCN(Cc3cccnc3)CC2)n1 (configuration not stated) | -0.3548% & -8.114% | -12.74%
CC(NCCCn1ccnc1)c1ccc(N2CCCS2(=O)=O)cc1 (configuration not stated) | -39.27% | -49.29%
O=S(=O)(c1ccc(F)cc1)N1CCCCC1c1cc[nH]n1 (configuration not stated) | 1.081% | 12.43%
CC(C)CCNC(=O)c1ccc(-n2cnc3ccccc3c2=O)cc1 | 10.19% | 41.43%
CNC(=O)c1[nH]nc2ccc(I)cc12 | 8.702% | 2.57%
Cn1cc(C(=O)NCC(Cc2cccc(F)c2)N2CCCCC2=O)nn1 (configuration not stated) | -27.96% | -21.75%
COc1ccc(N2CCC(N(C)C(=O)C(C)SC)CC2)cc1 (configuration not stated) | 4.426% | 2.776%
CCC(CC)c1cc(C(=O)N2CCN(C(C)C(N)=O)CC2)on1 (configuration not stated) | -3.73% | 2.122% & 11.68%
CN1CCCC2(CCN(S(=O)(=O)c3c(Cl)nc4sccn34)C2)C1=O (configuration not stated) | -12.44% | -0.7615%